Our source for the T/C and survivor count values is PubChem BioAssay AID328 (DTP/NCI, 2004).

The subject of this assay is BDF1 mice, P388 leukemia ip, median survival T/C. The assay is described as follows: NCI In Vivo Anticancer Drug Screen. Data for tumor model P388 Leukemia (intraperitoneal) in B6D2F1 (BDF1) mice. The note with it: T/C endpoint: median survival time, higher T/C = longer survival. The gist of the method: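 Transplantable tumour in mice; compound vs vehicle dosing; survival scored; ratio of treated to control reported.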

[1] abbreviates: dose: 200.0 mg/kg/injection, schedule: Q01DX009 (ip), vehicle: saline with Tween-80.
[2] abbreviates: dose: 16.0 mg/kg/injection, schedule: Q01DX009 (ip), vehicle: Klucel (hydroxypropylcellulose) (HPC).
Setting [3] is: dose: 32.0 mg/kg/injection, schedule: Q01DX009 (ip), vehicle: Klucel (hydroxypropylcellulose) (HPC).

The list does not hold the whole screen: it gathers tests that were run many times, whatever their T/C, doses with no T/C, and many T/C values between a quarter and a half above the control. Further doses and runs are listed elsewhere. T/C is the treated group as % of the vehicle group. Some entries give survivors of the animals treated and no T/C: the source files T/C as zero there, which appears to mark a toxic dose or a test without result, not a measured value. Some doses without a T/C left all or most animals alive at the check, yet need not have been tolerated: the source hardly ever lists a survival T/C far under the control, and the zero likely stands for such cases as well. Counts of survivors are from the toxicity check (mostly the fifth day) where no day follows; animals may have died later. Schedules are NCI's codes, read here as Q, the interval in days (D) or hours (H), X, the number of doses. Some entries were tested several times; their values stand side by side, smallest first. Where survival is the endpoint, the PubChem record calls one and a half times the control and up active, and a quarter to a half above the control has no call in these data; cut-offs in other NCI protocols can differ. Some T/C values carry the count of animals alive at the toxicity check (mostly the fifth day); where none is given, no animal had died by that day.

As to `COc1ccc2c(C)[n+]3ccc4cc(OC)c(OC)cc4c3cc2c1` (tested in a mixture with another compound), the T/C by setting is: (dose: 50.0 mg/kg/injection, schedule: Q01DX009 (ip), vehicle: saline) 140 % of control; (dose: 100.0 mg/kg/injection, schedule: Q01DX009 (ip), vehicle: saline) 145 % of control; (dose: 100.0 mg/kg/injection, schedule: Q04DX003 (ip), vehicle: saline, evaluated on day 30) 145 % of control; (dose: 100.0 mg/kg/injection, schedule: Q04DX003 (ip), vehicle: saline, evaluated on day 34) 145 % of control. The survivor count was 6 of 6 (dose: 112.0 mg/kg/injection, schedule: Q01DX009 (ip), vehicle: saline); 5 of 6 (dose: 200.0 mg/kg/injection, schedule: Q01DX009 (ip), vehicle: saline); 4 of 6 (dose: 200.0 mg/kg/injection, schedule: Q04DX003 (ip), vehicle: saline); 2 of 6 (dose: 300.0 mg/kg/injection, schedule: Q04DX003 (ip), vehicle: saline); 0 of 6 (dose: 400.0 mg/kg/injection, schedule: Q01DX009 (ip), vehicle: saline).

Regarding `O=C(CCCCl)CC(O)(C(F)(F)F)C(F)(F)F`, the survivor count runs as follows: (dose: 50.0 mg/kg/injection, schedule: Q01DX009 (ip), vehicle: saline with Tween-80) 6 of 6; under setting [1], 6 of 6.

`CC[C@@]1(O)C[C@H](OC2CC(N(C)C)C(OC3CC(O)C(OC4CCC(=O)C(C)O4)C(C)O3)C(C)O2)c2c(cc3c(c2O)C(=O)c2c(O)cccc2C3=O)[C@H]1C(=O)OC` (some centres undefined): the T/C runs as follows: (dose: 0.25 mg/kg/injection, schedule: Q01DX009 (ip), vehicle: saline) 134 % of control; (dose: 0.5 mg/kg/injection, schedule: Q01DX009 (ip), vehicle: water) 125 % of control; (dose: 1.0 mg/kg/injection, schedule: Q01DX009 (ip), vehicle: saline) 147 % of control [5 of 6 alive]; (dose: 1.0 mg/kg/injection, schedule: Q01DX009 (ip), vehicle: water) 142 % of control; (dose: 2.0 mg/kg/injection, schedule: Q01DX009 (ip), vehicle: saline) 138 % of control; (dose: 18.8 mg/kg/injection, schedule: Q04DX003 (ip), vehicle: water) 125 % of control. For the same compound, the survivor count is, setting by setting: (dose: 8.0 mg/kg/injection, schedule: Q01DX009 (ip), vehicle: water) 6 of 6; (dose: 15.0 mg/kg/injection, schedule: Q04DX003 (ip), vehicle: water) 8 of 8; (dose: 37.5 mg/kg/injection, schedule: Q04DX003 (ip), vehicle: water) 2 of 6; (dose: 75.0 mg/kg/injection, schedule: Q04DX003 (ip), vehicle: water) 0 of 6.

As for `CC1CCCN2C(=O)CN(N3CCOCC3)CC(=O)N12` (centres undefined), the survivor count was 4 of 5 (dose: 200.0 mg/kg/injection, schedule: Q04DX002 (ip), vehicle: saline with Tween-80) and 0 of 5 (dose: 400.0 mg/kg/injection, schedule: Q04DX002 (ip), vehicle: saline with Tween-80).

For the compound `CCCCOB(CI)OCCCC`, the survivor count is reported as 1 of 6 (dose: 12.5 mg/kg/injection, schedule: Q01DX009 (ip), vehicle: saline) and 0 of 6 (dose: 25.0 mg/kg/injection, schedule: Q01DX009 (ip), vehicle: saline).

Regarding `CCOC(=O)C(OCc1ccccc1)(C(=O)NCCc1ccc(OC)c(OC)c1)C(C)C` (centres undefined), the survivor count by setting is: (dose: 200.0 mg/kg/injection, schedule: Q04DX003 (ip), vehicle: other) 6 of 6; (dose: 400.0 mg/kg/injection, schedule: Q04DX003 (ip), vehicle: other) 5 of 6.

Regarding `CCCCOCN(COCCCC)c1ccc(C)cc1`, under setting [1], the survivor count is 0 of 6.

Regarding `CC[C@@]1(O)C[C@H](OC2CC(N(C)C)C(O)C(C)O2)c2c(cc3c(c2O)C(=O)c2c(O)ccc(O)c2C3=O)[C@H]1C(=O)OC` (some centres undefined), the T/C by setting is: (dose: 4.32 mg/kg/injection, schedule: Q04DX003 (ip), vehicle: other) 128 % of control; (dose: 7.2 mg/kg/injection, schedule: Q04DX003 (ip), vehicle: other) 140 % of control; (dose: 12.0 mg/kg/injection, schedule: Q04DX003 (ip), vehicle: other) 146 % of control.

As to `Cc1nc2ccccc2c(=O)n1/N=C/c1ccco1`, the survivor count under setting [1] was 0 of 6.

In the case of `Cc1ccc(N2CCN(C3=CCC(C(C)C)CC3)CC2)cc1Cl` (centres undefined), the survivor count (dose: 400.0 mg/kg/injection, schedule: Q01DX001 (ip), vehicle: saline with Tween-80) is listed as 1 of 6.

Consider `Cc1nc(N(C)C)c2cnn(-c3ccccc3)c2n1`, for which the survivor count is listed as 6 of 6 (dose: 150.0 mg/kg/injection, schedule: Q01DX009 (ip), vehicle: Klucel (hydroxypropylcellulose) (HPC)) and 5 of 6 (dose: 225.0 mg/kg/injection, schedule: Q01DX009 (ip), vehicle: Klucel (hydroxypropylcellulose) (HPC)).

Consider `ClC1C2c3ccccc3C(C1Cl)[n+]1ccccc12` (centres undefined), for which the survivor count is 1 of 6 (dose: 35.0 mg/kg/injection, schedule: Q01DX009 (ip), vehicle: Klucel (hydroxypropylcellulose) (HPC)) and 5 of 6 (dose: 50.0 mg/kg/injection, schedule: Q04DX003 (ip), vehicle: Klucel (hydroxypropylcellulose) (HPC)).

Consider `COC(=O)C12OCC34C(CC5C(C)=C(O)C(=O)CC5(C)C3C(O)C1O)OC(=O)C(OC(=O)CC(C)C(C)C)C24` (centres undefined), for which the survivor count (dose: 8.0 mg/kg/injection, schedule: Q01DX009 (ip), vehicle: saline + alcohol) is recorded as 2 of 6. Moreover, the T/C reads like this: (dose: 13.7 micrograms/kg/injection, schedule: Q01DX009 (ip), vehicle: saline) 125 % of control; (dose: 55.0 micrograms/kg/injection, schedule: Q01DX009 (ip), vehicle: saline) 130 % of control; (dose: 110.0 micrograms/kg/injection, schedule: Q01DX009 (ip), vehicle: saline) 130 % of control; (dose: 125.0 micrograms/kg/injection, schedule: Q01DX009 (ip), vehicle: saline + alcohol) 126 and 136 % of control; (dose: 220.0 micrograms/kg/injection, schedule: Q01DX009 (ip), vehicle: saline) 130 % of control; (dose: 250.0 micrograms/kg/injection, schedule: Q01DX009 (ip), vehicle: saline + alcohol) 130 and 136 % of control. Further, the T/C runs as follows: (dose: 500.0 micrograms/kg/injection, schedule: Q01DX009 (ip), vehicle: saline + alcohol) 140 % of control; (dose: 1000.0 micrograms/kg/injection, schedule: Q01DX009 (ip), vehicle: saline + alcohol) 130 % of control; (dose: 2000.0 micrograms/kg/injection, schedule: Q01DX009 (ip), vehicle: saline + alcohol) 130 % of control; (dose: 4000.0 micrograms/kg/injection, schedule: Q01DX009 (ip), vehicle: saline + alcohol) 126 % of control.

With `CCOC(=O)C1C(=O)C(C(=O)Nc2ccccc2)C(=O)C(C(=O)OCC)C1c1ccc(O)cc1` (centres undefined), the survivor count (dose: 200.0 mg/kg/injection, schedule: Q04DX003 (ip), vehicle: saline with Tween-80) is 6 of 6.

Take `O=C1NC(c2cccc3ccccc23)Nc2ccccc21` (centres undefined): the T/C under setting [2] is 127 % of control and the T/C under setting [3] is 145 % of control. Besides, the survivor count was 9 of 9 under setting [2]; 9 of 10 under setting [3]; 10 of 10 and 6 of 6 (dose: 128.0 mg/kg/injection, schedule: Q01DX009 (ip), vehicle: Klucel (hydroxypropylcellulose) (HPC)); 0 of 10 and 3 of 6 (dose: 256.0 mg/kg/injection, schedule: Q01DX009 (ip), vehicle: Klucel (hydroxypropylcellulose) (HPC)); 10 of 10 (dose: 400.0 mg/kg/injection, schedule: Q01DX009 (ip), vehicle: water).

Regarding `CCSC1=C(SCC)C1SCC`, the T/C (dose: 100.0 mg/kg/injection, schedule: Q04DX003 (ip), vehicle: Klucel (hydroxypropylcellulose) (HPC)) is 126 % of control. Moreover, the survivor count is 2 of 6 (dose: 200.0 mg/kg/injection, schedule: Q04DX003 (ip), vehicle: Klucel (hydroxypropylcellulose) (HPC)) and 0 of 6 (dose: 400.0 mg/kg/injection, schedule: Q04DX003 (ip), vehicle: Klucel (hydroxypropylcellulose) (HPC)).
